Data reported in BindingDB's records for doi:10.1021/jm049227l (Molecular Discovery, 2005).

The chains behind the UniProt entries cited, without tags or fusion partners.
UniProt P02768, whole entry: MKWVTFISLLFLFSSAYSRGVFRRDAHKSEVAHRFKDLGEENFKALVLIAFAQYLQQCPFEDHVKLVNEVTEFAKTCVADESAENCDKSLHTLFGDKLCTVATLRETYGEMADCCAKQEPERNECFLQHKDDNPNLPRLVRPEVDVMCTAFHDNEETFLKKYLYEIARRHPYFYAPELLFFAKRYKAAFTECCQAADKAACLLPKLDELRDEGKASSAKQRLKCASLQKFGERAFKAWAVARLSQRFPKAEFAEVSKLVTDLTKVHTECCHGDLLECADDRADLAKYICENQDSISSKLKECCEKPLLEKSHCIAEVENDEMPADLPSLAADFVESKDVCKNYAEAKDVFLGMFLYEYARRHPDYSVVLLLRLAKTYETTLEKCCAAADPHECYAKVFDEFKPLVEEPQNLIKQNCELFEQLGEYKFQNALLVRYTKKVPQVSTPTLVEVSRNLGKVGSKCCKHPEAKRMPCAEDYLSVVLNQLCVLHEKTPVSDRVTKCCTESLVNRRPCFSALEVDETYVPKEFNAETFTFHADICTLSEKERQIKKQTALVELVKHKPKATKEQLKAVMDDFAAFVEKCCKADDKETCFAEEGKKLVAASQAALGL

Molecular target: Albumin (Homo sapiens, UniProt P02768)
Test: Binding affinity towards human serum albumin

- Association constant (Ka): 138000 M⁻¹
SMILES: NS(=O)(=O)c1cc(C(=O)O)c(NCc2ccco2)cc1Cl [4-chloro-2-[(furan-2-ylmethyl)amino]-5-sulfamoylbenzoic acid]
